Measured values published in paper PMC10803770.
No constants are given. Whether binding was seen depends on the method and setting. Binding seen in cells or lysates may run through a third protein. A yes stands for co-enrichment or nearness to the bait. Other partners may have been found.

The chains behind the UniProt entries cited, without tags or fusion partners. Residues count along the entry.
UniProt Q9UBV2, residues 22-794: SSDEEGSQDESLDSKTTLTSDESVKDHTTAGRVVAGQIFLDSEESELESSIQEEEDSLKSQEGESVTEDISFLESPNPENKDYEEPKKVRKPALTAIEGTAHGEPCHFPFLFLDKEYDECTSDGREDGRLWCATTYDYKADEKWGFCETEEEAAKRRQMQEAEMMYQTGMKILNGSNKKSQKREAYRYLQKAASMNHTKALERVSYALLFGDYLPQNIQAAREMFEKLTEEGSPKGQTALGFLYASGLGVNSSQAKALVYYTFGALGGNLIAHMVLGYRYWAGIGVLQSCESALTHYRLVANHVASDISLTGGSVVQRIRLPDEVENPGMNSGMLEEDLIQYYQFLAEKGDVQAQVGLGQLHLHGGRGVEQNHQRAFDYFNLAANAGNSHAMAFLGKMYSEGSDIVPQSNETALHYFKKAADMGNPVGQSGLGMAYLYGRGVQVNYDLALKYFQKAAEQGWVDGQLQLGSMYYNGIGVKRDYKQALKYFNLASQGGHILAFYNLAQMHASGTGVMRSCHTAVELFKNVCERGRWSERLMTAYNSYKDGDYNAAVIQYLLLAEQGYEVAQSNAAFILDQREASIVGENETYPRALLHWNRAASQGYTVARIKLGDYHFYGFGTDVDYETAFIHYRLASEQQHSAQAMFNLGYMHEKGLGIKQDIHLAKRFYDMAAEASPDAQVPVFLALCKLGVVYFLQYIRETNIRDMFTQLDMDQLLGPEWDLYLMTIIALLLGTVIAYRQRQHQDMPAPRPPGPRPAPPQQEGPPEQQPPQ

Columns and labels:
[1] = molecular target: SEL1L (human (endogenous in HEK293T)) (UniProt Q9UBV2); experiment: affinity purification with mass spectrometry; anti-SEL1L IP and LC-MS/MS, substrate screen: HRD1 KO compared with WT, SEL1L KO and IgG samples of HEK293T cells; Group A hits also detected in WT, Group B hits only in HRD1 KO; 10 mg lysate
[2] = molecular target: SEL1L (human (endogenous in HEK293T)) (UniProt Q9UBV2); experiment: affinity purification with mass spectrometry; anti-SEL1L IP and LC-MS/MS of the endogenous SEL1L interactome, WT vs. SEL1L KO HEK293T cells; 10 mg lysate

B1: OS9 (protein, UniProt Q13438 26-667)
chain: GGVGSLNLEELSEMRYGIEILPLPVMGGQSQSSDVVIVSSKYKQRYECRLPAGAIHFQREREEETPAYQGPGIPELLSPMRDAPCLLKTKDWWTYEFCYGRHIQQYHMEDSEIKGEVLYLGYYQSAFDWDDETAKASKQHRLKRYHSQTYGNGSKCDLNGRPREAEVRFLCDEGAGISGDYIDRVDEPLSCSYVLTIRTPRLCPHPLLRPPPSAAPQAILCHPSLQPEEYMAYVQRQADSKQYGDKIIEELQDLGPQVWSETKSGVAPQKMAGASPTKDDSKDSDFWKMLNEPEDQAPGGEEVPAEEQDPSPEAADSASGAPNDFQNNVQVKVIRSPADLIRFIEELKGGTKKGKPNIGQEQPVDDAAEVPQREPEKERGDPERQREMEEEEDEDEDEDEDEDERQLLGEFEKELEGILLPSDRDRLRSEVKAGMERELENIIQETEKELDPDGLKKESERDRAMLALTSTLNKLIKRLEEKQSPELVKKHKKKRVVPKKPPPSPQPTEEDPEHRVRVRVTKLRLGGPNQDLTVLEMKRENPQLKQIEGLVKELLEREGLTAAGKIEIKIVRPWAEGTEEGARWLTDEDTRNLKEIFFNILVPGAEEAQKERQRQKELESNYRRVWGSPGGEGTGDLDEFDF
Question: How did the binding [1] turn out when B1 was run?
Answer: The binding was “binds”.

Question: And the binding [2]?
Answer: Its binding is “binds”.
